For one compound, IC50 results are on record in US20080045535A1, “Prokineticin 2 receptor antagonists” (priority 2005, published 2008).

Sequences of proteins named here, by UniProt entry; tags and fusion partners are left off.
UniProt Q8TCW9, whole entry: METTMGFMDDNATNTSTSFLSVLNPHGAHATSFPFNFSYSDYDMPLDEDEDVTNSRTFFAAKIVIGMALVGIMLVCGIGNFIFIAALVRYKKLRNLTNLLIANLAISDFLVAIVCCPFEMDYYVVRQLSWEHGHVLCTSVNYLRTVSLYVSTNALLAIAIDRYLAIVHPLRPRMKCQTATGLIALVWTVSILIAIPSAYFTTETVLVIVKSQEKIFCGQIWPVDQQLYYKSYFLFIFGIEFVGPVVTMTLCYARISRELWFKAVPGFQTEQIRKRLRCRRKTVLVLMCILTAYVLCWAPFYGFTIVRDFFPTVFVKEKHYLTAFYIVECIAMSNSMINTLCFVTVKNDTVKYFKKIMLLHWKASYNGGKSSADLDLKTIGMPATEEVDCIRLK

The match of structure and compound is tentative. Bounds are passed on as bounds.

This test addresses HEK 293 GPR73 (prokineticin 1 receptor) expressing cells (Homo sapiens, UniProt Q8TCW9). Put plainly: PK1 functional assay: screening for PK1 antagonists on the FLIPR (calcium fluorescence). Conditions: read-out: Ca^2+ Mobilization IC50, HEK 293 GPR73 cells, PK1 ligand at EC50, multiple values = repeat tests.

Turning to `CCCCOc1ccc(Cn2c(NCCNC(=N)N)nc(=O)n(Cc3ccccc3)c2=O)cc1` [Cpd 148], the IC50 is > 10 µM.
